Data as given in paper PMC11696143, “A higher order PUF complex is central to regulation of C. elegans germline stem cells” (Nature Communications, 2024).
No constants are given. Whether binding was seen depends on the method and setting.

Assays:
[1] = target: T1, C. elegans FBF-2 RBD (residues 164-575) (C. elegans) (UniProt Q09312); experiment: condition: LST-1 100-400 µM titrated into FBF-2 10-30 µM; ITC; LST-1 variant (100-400 µM) titrated from the syringe into the cell with FBF-2 (10-30 µM); 20 °C; 20 mM HEPES pH 7.4, 150 mM NaCl, 0.5 mM TCEP; no RNA; one-site model; apparent constants; two technical replicates; both purified
T1 sequence: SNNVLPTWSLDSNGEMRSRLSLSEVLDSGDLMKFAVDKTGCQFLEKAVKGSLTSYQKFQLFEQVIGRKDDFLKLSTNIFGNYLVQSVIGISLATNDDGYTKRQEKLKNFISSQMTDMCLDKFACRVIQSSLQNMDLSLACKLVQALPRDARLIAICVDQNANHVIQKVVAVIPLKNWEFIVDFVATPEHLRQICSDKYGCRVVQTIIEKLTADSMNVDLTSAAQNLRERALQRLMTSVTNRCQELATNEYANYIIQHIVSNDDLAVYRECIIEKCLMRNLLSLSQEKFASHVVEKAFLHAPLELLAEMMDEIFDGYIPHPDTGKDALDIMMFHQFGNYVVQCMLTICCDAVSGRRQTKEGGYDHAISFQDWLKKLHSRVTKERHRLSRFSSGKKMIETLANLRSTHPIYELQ

[2] = target: T2, C. elegans FBF-2 RBD+CT (residues 164-632) (C. elegans) (UniProt Q09312); experiment: as above
T2 sequence: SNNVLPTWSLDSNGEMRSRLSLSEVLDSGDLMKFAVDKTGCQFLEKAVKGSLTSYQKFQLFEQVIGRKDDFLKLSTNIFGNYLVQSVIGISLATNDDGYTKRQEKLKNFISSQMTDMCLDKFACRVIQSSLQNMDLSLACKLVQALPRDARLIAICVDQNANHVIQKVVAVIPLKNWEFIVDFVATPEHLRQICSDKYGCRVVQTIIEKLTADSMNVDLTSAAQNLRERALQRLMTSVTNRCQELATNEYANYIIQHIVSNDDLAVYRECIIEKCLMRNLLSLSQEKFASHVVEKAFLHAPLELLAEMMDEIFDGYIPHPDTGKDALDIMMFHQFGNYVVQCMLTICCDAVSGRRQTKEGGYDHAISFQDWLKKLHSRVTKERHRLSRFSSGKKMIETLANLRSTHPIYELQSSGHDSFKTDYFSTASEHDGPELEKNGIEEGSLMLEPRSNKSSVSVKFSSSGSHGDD

B1: LST-1^19–98(A^m B^m): K32A, L35A, K80A, L83A, Y85A (domain or fragment, UniProt P91820 19-98)
chain: STIAYSKSQHEAPAQLAQLRSEIKPLIPLNQPSNFWESSQDSGVLSSLSSSPQQRSGLRSQALHATAIEKNKRVRAMIPQ
- binding [1]: no binding
- binding [2]: no binding
